Results published in patent US20240400659A1.
Substitutions are numbered along the chain they refer to. Names may count otherwise. No constants are given. Whether binding was seen depends on the method and setting. Some entries that bind do so weakly or less than the wild type.

By UniProt entry, the sequences of proteins in these tests, tags left out. Where a name states a change or a piece, a line headed by the entry shows the natural chain unless it says otherwise.
UniProt P02649: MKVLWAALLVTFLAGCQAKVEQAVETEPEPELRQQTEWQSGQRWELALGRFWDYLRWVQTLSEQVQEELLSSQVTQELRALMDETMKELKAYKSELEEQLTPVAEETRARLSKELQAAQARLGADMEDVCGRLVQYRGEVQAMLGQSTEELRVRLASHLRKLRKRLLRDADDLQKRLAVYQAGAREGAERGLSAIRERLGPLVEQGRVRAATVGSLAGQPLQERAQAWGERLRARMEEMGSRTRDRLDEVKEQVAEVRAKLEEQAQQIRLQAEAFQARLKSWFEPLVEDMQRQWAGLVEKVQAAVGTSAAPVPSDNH

Assays:
[1] = biological target: Apolipoprotein E4 (human) (UniProt P02649); assay: pH affinity ELISA, coated hApoE4 (Example 15)
[2] = biological target: T1, mouse ApoE (mouse) (UniProt P08226); assay: pH affinity ELISA, coated mouse ApoE (Example 16)
T1 sequence (looked up): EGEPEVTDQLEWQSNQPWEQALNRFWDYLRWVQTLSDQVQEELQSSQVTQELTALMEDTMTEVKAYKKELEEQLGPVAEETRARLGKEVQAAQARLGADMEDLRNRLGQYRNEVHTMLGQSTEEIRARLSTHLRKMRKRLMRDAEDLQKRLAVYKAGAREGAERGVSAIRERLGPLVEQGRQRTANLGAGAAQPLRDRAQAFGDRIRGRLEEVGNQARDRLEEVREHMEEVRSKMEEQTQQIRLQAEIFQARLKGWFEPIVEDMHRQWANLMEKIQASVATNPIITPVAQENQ

B1: BAP191.01-CPE-HC-M104E (antibody, V domains shown)
VH: QIQLVQSGPELKKPGETVKISCKASGYTFTTAGMQWVQKMPGKGFKWIGWINTHSGEPKYAEDFKGRFAFSLETSASTAYLQISNLKNEDTATYFCARMGGYAEDYWGQGTSVTVSS
VL: DIKLTQSPSSMYASLGERVTITCKASEDINSYLSWFQQKPGKSPKTLIYRANRLVDGVPSRFSGSGSGQDYSLTISSLEYEDMGIYYCLQYDEFPLTFGAGTKLELT
- binding [1]: binds
- binding [2]: binds

B2: BAP191.01-CPE-LC-P095D (antibody, V domains shown)
VH: B1 VH with E104M
VL: B1 VL with P95D
- binding [1]: binds
- binding [2]: binds

B3: BAP191-01-CPE-HC-M034D (antibody, V domains shown)
VH: B1 VH with M34D, E104M
VL: B1 VL
- binding [1]: binds
- binding [2]: binds

B4: BAP191.01-CPE-HC-I051D (antibody, V domains shown)
VH: B1 VH with I51D, E104M
VL: B1 VL
- binding [1]: binds
- binding [2]: binds

B5: BAP191.01-CPE-HC-R098E (antibody, V domains shown)
VH: B1 VH with R98E, E104M
VL: B1 VL
- binding [1]: binds
- binding [2]: binds

B6: BAP191.01-CPE-HC-M099E (antibody, V domains shown)
VH: B1 VH with M99E, E104M
VL: B1 VL
- binding [1]: binds
- binding [2]: binds

B7: BAP191.01-CPE-LC-Y091D (antibody, V domains shown)
VH: B1 VH with E104M
VL: B1 VL with Y91D
- binding [1]: binds
